{"source": "PubChem BioAssay AID720505, Drosophila RNAi Screening Center – 2013", "test": "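Genes needed for store-operated calcium entry in fly cells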 (primary screen)", "cell system": "Drosophila S2R+ cells", "knock-down reagent": "long dsRNA against Drosophila genes", "challenge": "thapsigargin (2 µM) in calcium-free buffer to empty internal stores, then 2 mM calcium added back", "read-out": "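Stores emptied by 2 µM thapsigargin without calcium, then 2 mM calcium re-added; fluo-4 fluorescence followed by FLIPR in 384-well plates, per-well averaged endpoint, raw; two screen passes, some wells retested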", "direction": "calcium signal and retest calcium signal: higher = more calcium entry after store depletion", "call rule": "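Knock-downs counted as hits when calcium entry dropped relative to STIM1 positive and Rho1 negative controls present on each plate; roughly 1500 genes called, with reductions of differing size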", "calls": "active = called as lowering calcium entry; inactive = not called", "note": "The deposit covers about 20,000 reagents; shown is a random part of those with a known target gene and a result. Of all reagents, about 2,100 (10%) were called active. 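Raw plate signals without normalisation; calls rest on control-based scores that were not deposited; replicate 2 separates called from uncalled poorly.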 Names joined by + are all predicted targets of the reagent. Not stated in the record: the amount of reagent, the time to read-out."}
{"gene": "CG13220", "DRSC id": "DRSC06342", "calcium signal, replicate 1": 107, "calcium signal, replicate 2": 136, "Outcome": "inactive"}
{"gene": "CG31275", "DRSC id": "DRSC16919", "calcium signal, replicate 1": 127, "calcium signal, replicate 2": 78.2, "Outcome": "inactive"}
{"gene": "POSH", "DRSC id": "DRSC07499", "calcium signal, replicate 1": 192, "calcium signal, replicate 2": 178, "Outcome": "inactive"}
{"gene": "Cep164", "DRSC id": "DRSC20163", "calcium signal, replicate 1": 83, "calcium signal, replicate 2": 108, "Outcome": "inactive"}
{"gene": "CG14448", "DRSC id": "DRSC11705", "calcium signal, replicate 1": 78.3, "calcium signal, replicate 2": 173, "Outcome": "inactive"}
{"gene": "Eig71Eg", "DRSC id": "DRSC11154", "calcium signal, replicate 1": 89.5, "calcium signal, replicate 2": 128, "Outcome": "inactive"}
{"gene": "CG14767", "DRSC id": "DRSC06500", "calcium signal, replicate 1": 179, "calcium signal, replicate 2": 178, "Outcome": "inactive"}
{"gene": "Not3", "DRSC id": "DRSC04908", "calcium signal, replicate 1": 124, "calcium signal, replicate 2": 89.3, "Outcome": "inactive"}
{"gene": "Sytbeta", "DRSC id": "DRSC10009", "calcium signal, replicate 1": 78.2, "calcium signal, replicate 2": 163, "Outcome": "inactive"}
{"gene": "Sytbeta", "DRSC id": "DRSC10351", "calcium signal, replicate 1": 104, "calcium signal, replicate 2": 161, "Outcome": "inactive"}
{"gene": "CG30203", "DRSC id": "DRSC06690", "calcium signal, replicate 1": 142, "calcium signal, replicate 2": 160, "Outcome": "inactive"}
{"gene": "CG6362", "DRSC id": "DRSC07413", "calcium signal, replicate 1": 157, "calcium signal, replicate 2": 127, "Outcome": "inactive"}
{"gene": "Sirt6", "DRSC id": "DRSC16010", "calcium signal, replicate 1": 117, "calcium signal, replicate 2": 108, "Outcome": "inactive"}
{"gene": "eIF4EHP", "DRSC id": "DRSC14265", "calcium signal, replicate 1": 105, "calcium signal, replicate 2": 132, "Outcome": "inactive"}
{"gene": "Cpr76Bb", "DRSC id": "DRSC11061", "calcium signal, replicate 1": 125, "calcium signal, replicate 2": 150, "Outcome": "inactive"}
{"gene": "Cpr76Bb", "DRSC id": "DRSC22870", "calcium signal, replicate 1": 83.5, "calcium signal, replicate 2": 71.4, "Outcome": "inactive"}
{"gene": "Gr36c", "DRSC id": "DRSC02437", "calcium signal, replicate 1": 93.7, "calcium signal, replicate 2": 153, "Outcome": "inactive"}
{"gene": "Aladin", "DRSC id": "DRSC18121", "calcium signal, replicate 1": 206, "calcium signal, replicate 2": 130, "Outcome": "inactive"}
{"gene": "CG8407", "DRSC id": "DRSC07167", "calcium signal, replicate 1": 93.6, "calcium signal, replicate 2": 89.5, "Outcome": "inactive"}
{"gene": "cyst", "DRSC id": "DRSC02023", "calcium signal, replicate 1": 108, "calcium signal, replicate 2": 125, "Outcome": "inactive"}
{"gene": "scpr-A + scpr-C + scpr-B", "DRSC id": "DRSC15715", "calcium signal, replicate 1": 97.8, "calcium signal, replicate 2": 110, "Outcome": "inactive"}
{"gene": "CG15549", "DRSC id": "DRSC15087", "calcium signal, replicate 1": 165, "calcium signal, replicate 2": 158, "Outcome": "inactive"}
{"gene": "GNBP1", "DRSC id": "DRSC11169", "calcium signal, replicate 1": 80.2, "calcium signal, replicate 2": 109, "Outcome": "inactive"}
{"gene": "GNBP1", "DRSC id": "DRSC21836", "calcium signal, replicate 1": 99.7, "calcium signal, replicate 2": 89.8, "Outcome": "inactive"}
{"gene": "ProRS-m", "DRSC id": "DRSC08261", "calcium signal, replicate 1": 77, "calcium signal, replicate 2": 96.3, "Outcome": "inactive"}
{"gene": "CG13369", "DRSC id": "DRSC18481", "calcium signal, replicate 1": 68.5, "calcium signal, replicate 2": 136, "Outcome": "inactive"}
{"gene": "CG5355", "DRSC id": "DRSC02844", "calcium signal, replicate 1": 83.8, "calcium signal, replicate 2": 112, "Outcome": "inactive"}
{"gene": "CG14985", "DRSC id": "DRSC08443", "calcium signal, replicate 1": 82.1, "calcium signal, replicate 2": 99.2, "Outcome": "inactive"}
{"gene": "CG11722", "DRSC id": "DRSC14358", "calcium signal, replicate 1": 62.9, "calcium signal, replicate 2": 71.3, "Outcome": "active"}
{"gene": "RpS11", "DRSC id": "DRSC07289", "calcium signal, replicate 1": 226, "calcium signal, replicate 2": 158, "retest calcium signal, replicate 1": 110, "retest calcium signal, replicate 2": 106, "Outcome": "inactive"}
{"gene": "RpS11", "DRSC id": "DRSC22700", "calcium signal, replicate 1": 90, "calcium signal, replicate 2": 117, "Outcome": "inactive"}
{"gene": "CG8051", "DRSC id": "DRSC20077", "calcium signal, replicate 1": 222, "calcium signal, replicate 2": 109, "Outcome": "inactive"}
{"gene": "Hsp83", "DRSC id": "DRSC08664", "calcium signal, replicate 1": 86.7, "calcium signal, replicate 2": 135, "Outcome": "inactive"}
{"gene": "Prp38", "DRSC id": "DRSC07060", "calcium signal, replicate 1": 153, "calcium signal, replicate 2": 114, "Outcome": "inactive"}
{"gene": "CG9396", "DRSC id": "DRSC16487", "calcium signal, replicate 1": 126, "calcium signal, replicate 2": 137, "Outcome": "inactive"}
